Data as given in PMC11998062.
The exact form of at least one protein or probe is not confirmed. For some assays here: A weaker result is weaker than the reference pair of the same experiment. For some assays here: At least one verdict rests on a figure or table, not on a statement of the authors.

Assays:
[1] = test system: MaxS2pS11pK31AcK57Ac S2pS,S11pS,K31Ac,K57Ac,M1Nle,M65Nle,M148Nle; test: EMSA; conditions: 1 uM DNA, 0-8 uM protein, 1 mM MgCl2, very minor binding at elevated concentrations; EMSA: 10 mM MES pH 6.0, 150 mM KCl, 1 mM MgCl2, 10% glycerol, room temperature 30 min, 8% TBE gel; residues 1-151; protein details: C-terminal extra K
[2] = test system: MaxK31AcK57Ac K31Ac,K57Ac,M1Nle,M65Nle,M148Nle; test: EMSA; conditions: 1 uM DNA, 0-8 uM protein, 1 mM MgCl2, inhibition less pronounced than P2; EMSA: 10 mM MES pH 6.0, 150 mM KCl, 1 mM MgCl2, 10% glycerol, room temperature 30 min, 8% TBE gel; residues 1-151; protein details: C-terminal extra K
[3] = test system: MaxS2pS11p S2pS,S11pS,M1Nle,M65Nle,M148Nle; test: EMSA; conditions: 1 uM DNA, 0-8 uM protein, 1 mM MgCl2, inhibition less pronounced than P2; EMSA: 10 mM MES pH 6.0, 150 mM KCl, 1 mM MgCl2, 10% glycerol, room temperature 30 min, 8% TBE gel; residues 1-151; protein details: C-terminal extra K
[4] = test system: MaxS2pS11pK31AcK57Ac S2pS,S11pS,K31Ac,K57Ac,M1Nle,M65Nle,M148Nle; test: CD; conditions: 5 uM DNA and protein 1:1, no structural stabilization with DNA; CD: same buffer; residues 1-151; protein details: C-terminal extra K
[5] = test system: Max-WT M1Nle,M65Nle,M148Nle; test: BLI; conditions: 0.1% BSA, 0.02% Tween-20, 1x PBS, 1:1 global fit, BLI: 1x PBS, protein details: C-terminal extra K

Sequence | binding result [1] | binding result [2] | binding result [3] | binding result [4] | Kd [5]
CCGGCTGACACGTGGTATTAAT (double strand) [E-box DNA probe] | binds more weakly | binds more weakly | binds more weakly | binds more weakly | –
CCGGCTGACACGTGGTATTAAT (double strand) [biotinylated E-box DNA probe] | – | – | – | – | 15.3 nM
